Laboratory results from ChEMBL document CHEMBL1806480, “New condensed pyrroles of potential biological interest syntheses and structure-activity relationship studies” (2011).
Values after ≈ are worked out from the molar mass of the structure shown.

System: Candida albicans
Experiment: Antimicrobial activity against Candida albicans ATCC 10231 after 24 hrs by microdilution technique
Assay type: functional
Details: ATCC 10231, 24 h

OC(Cn1cncn1)(Cn1cncn1)c1ccc(F)cc1F [FLUCONAZOLE]
MIC: 512 µg/mL (≈ 1670 µM)
